Sequences of proteins named here, by UniProt entry; tags and fusion partners are left off. A change or cut given only in a name is not applied to a line headed by its entry.
UniProt P51450: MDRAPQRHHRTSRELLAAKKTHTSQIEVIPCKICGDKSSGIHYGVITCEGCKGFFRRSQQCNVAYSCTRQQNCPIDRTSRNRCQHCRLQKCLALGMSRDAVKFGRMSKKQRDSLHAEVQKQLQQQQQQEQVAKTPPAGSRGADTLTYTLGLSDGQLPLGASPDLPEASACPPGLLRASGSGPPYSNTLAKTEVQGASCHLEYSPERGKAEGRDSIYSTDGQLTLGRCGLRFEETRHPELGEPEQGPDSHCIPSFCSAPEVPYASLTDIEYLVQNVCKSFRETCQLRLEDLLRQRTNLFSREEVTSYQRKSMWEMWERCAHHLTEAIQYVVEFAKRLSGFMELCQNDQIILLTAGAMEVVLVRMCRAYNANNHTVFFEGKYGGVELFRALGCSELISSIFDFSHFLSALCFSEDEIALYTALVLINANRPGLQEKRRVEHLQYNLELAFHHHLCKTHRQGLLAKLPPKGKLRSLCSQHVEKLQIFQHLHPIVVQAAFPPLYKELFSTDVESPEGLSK

The campaign covered roughly 310,000 compounds. About 17,000 (5.5%) were called active. This list was built around the results that the source calls inconclusive (neither active nor inactive); the mix of calls is not that of the screen. The call rests on the fitted dose curve; in most records, active means well fitted inhibition curve with a large enough effect; inconclusive means small, poorly fitted or top-dose-only effect, or effect the other way; inactive means no such curve, though single readings can be large or run the other way. Where the call is inconclusive, the potency comes from a doubtful curve fit.
Each molecule was assayed against Nuclear receptor ROR-gamma (Mus musculus) (UniProt P51450) (assay: qHTS for inhibitors of ROR gamma transcriptional activity). Settings: Drosophila S2 Gal4-RORgamma UAS-luciferase reporter, 20 h; series mostly up to 53.6 µM.
Method in brief: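 Luminescence from a UAS-regulated Photinus luciferase reporter in stably transfected Drosophila Schneider cells is measured; decreased signal marks ROR gamma inhibition. Fusion expression is induced by 700 uM copper sulfate for 20 hr.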
For `CSc1nc(Oc2ccccc2)c2sccc2n1`, the Potency was inconclusive: 22.4 µM [activator, single point].
In the case of `CCn1cc(C(=O)NC(=S)Nc2sc3c(c2C(=O)OC)CCCCCC3)cn1`, the Potency is reported as inconclusive: 1.41 µM [activator, partial curve].
For `COc1cc(Br)ccc1C1CC(=O)C(C)C(c2ccc(Br)cc2OC)N1` (stereo not drawn), the Potency was “inactive”.
`Cc1ccc2c(c1)c(N=Nc1cccc(C(=O)O)c1)c(O)n2C` was tested, and the Potency was “inactive”.
With `COc1cc(C(=O)NC(=S)NCc2ccco2)cc(OC)c1OC` the Potency was active: 6.31 µM.
`O=C(Nc1cccc(NC(=O)c2ccc(-c3ccc(Br)cc3)o2)c1)c1ccco1` was tested, and the Potency was inconclusive: 4.47 µM [activator, full curve].
In the case of `CCCCn1c(CCC)nc([N+](=O)[O-])c1Sc1ccc(Cl)cn1`, the Potency is reported as inconclusive: 35.5 µM [inhibitor, single point].
`C/C(=N\NC(=O)c1c[nH]c2ccccc12)c1ccccn1` was tested, and the Potency was active: 3.55 µM.
In the case of `COc1ccc(-n2c(Cc3cccn3C)nnc2SCC(=O)Nc2cccc(F)c2)cc1`, the Potency is reported as inconclusive: 10 µM [activator, partial curve, poor fit].
With `O=C(N/N=C/c1ccccc1O)c1cccc(C(F)(F)F)c1` the Potency was active: 1 µM.
With `COCc1cc(C)nc(SCC(=O)Nc2ccc3c(c2)OCCO3)c1C#N` the Potency was inconclusive: 11.2 µM [activator, single point].
`C=C1C(=O)O[C@H]2C[C@]3(C)C([C@@H](OC(=O)/C(C)=C/C)[C@H]12)[C@](C)(O)CC[C@H]3O` (stereo partly drawn) was tested, and the Potency was active: 11.2 µM.
`COC(=O)/C=C1/SC(=NC(=O)c2ccc(F)cc2)NC1=O` was tested, and the Potency was “inactive”.
For `Cc1cc(NC(=S)N(Cc2ccc(Br)cc2)Cc2ccc(C(=O)O)cc2)ccc1Cl`, the Potency was inconclusive: 35.5 µM [inhibitor, single point].
With `Cc1cc(C)n(-c2nc(NCCO)c3c4c(sc3n2)CCCC4)n1` the Potency was active: 3.16 µM.
With `Cc1cc(-c2ccc(N=Nc3c(S(=O)(=O)O)cc4cc(S(=O)(=O)O)cc(N)c4c3O)c(C)c2)ccc1N=Nc1c(S(=O)(=O)O)cc2cc(S(=O)(=O)O)cc(N)c2c1O` the Potency was active: 14.1 µM.
In the case of `CC(C)(C)NC(=O)c1cccc(NC(=O)Cc2ccc(Br)cc2)c1`, the Potency is reported as inconclusive: 20 µM [activator, partial curve, poor fit].
With `C#CCn1cc(/C=N/NC(=O)COc2cccc3cccnc23)c2ccccc21` the Potency was “inactive”.
`Cc1nc2cc(NC(=O)N3CCC(c4ccccc4)C3)ccc2n1C` (stereo not drawn) was tested, and the Potency was inconclusive: 35.5 µM [activator, single point].
With `CSc1ccccc1OCc1cc(C(=O)N2C[C@H]3CC[C@H]2C3)no1` the Potency was inconclusive: 11.2 µM [activator, partial curve].
In the case of `CCC(=O)c1ccc(N2CCN(C(=O)Cc3ccccc3)CC2)c(F)c1`, the Potency is reported as inconclusive: 11.2 µM [activator, partial curve].
With `CCSc1nnc(-c2ccc(S(=O)(=O)N3CCOCC3)cc2)n1C` the Potency was “inactive”.
For `COc1ccc(C2NC(=O)C(C#N)=C(S)N2c2ccc(C)cc2)cc1OC` (stereo not drawn), the Potency was inconclusive: 12.6 µM [inhibitor, single point].
With `CCc1ccc(OCc2nc(-c3ccccn3)no2)c(Br)c1` the Potency was inconclusive: 11.2 µM [inhibitor, single point].
`Cc1ccc(NC(=O)C2CC2c2ccccc2)cc1` (stereo not drawn) was tested, and the Potency was “inactive”.
In the case of `CN(CCc1ccccn1)C(=S)Nc1ccc(Cl)c(Cl)c1`, the Potency is reported as inconclusive: 11.2 µM [inhibitor, partial curve, poor fit].
In the case of `COc1cccc(C(=O)Nc2nnc(-c3cccs3)s2)c1`, the Potency is reported as inconclusive: 12.6 µM [inhibitor, single point].
With `CC(/C=N/O)Cc1ccc2c(c1)OCO2` (stereo not drawn) the Potency was “inactive”.
For `N/C(=N\NC(=O)c1ccccc1)c1cc2ccccc2oc1=O`, the Potency was inconclusive: 5.62 µM [inhibitor, single point].
With `CCn1cc2nc(SCC(=O)Nc3ccc(OC)c(OC)c3)n(Cc3ccc(OC)cc3)c(=O)c2n1` the Potency was “inactive”.
For `CCS(=O)(=O)NC(C)C(c1cccs1)N1CCN(c2ccc(F)cc2)CC1` (stereo not drawn), the Potency was inconclusive: 15.8 µM [activator, single point].
In the case of `Clc1ccc(CSc2nnc(-c3sccc3-n3cccc3)o2)cc1`, the Potency is reported as inconclusive: 35.5 µM [activator, single point].
With `COc1ccccc1-n1c(SCC(=O)NC(C)(C)C)nnc1-c1ccco1` the Potency was inconclusive: 12.6 µM [activator, partial curve, poor fit].
With `Cc1cc(=O)[nH]c2c(C)cc(S(=O)(=O)N3CCCCC3)cc12` the Potency was active: 5.62 µM.
`COc1cc(CN2CCC(C(=O)NCCC(C)C)CC2)ccc1OCc1ccccc1` was tested, and the Potency was “inactive”.
For `CCCc1cc(C(=O)Nc2ccc(C(=O)c3ccc(C)cc3)cc2)n(C)n1`, the Potency was inconclusive: 35.5 µM [activator, single point].
`CCCC(=NC(C)CC)C1=C(O)CC(c2ccccc2)CC1=O` (stereo not drawn) was tested, and the Potency was “inactive”.
For `COC(=O)c1ccc(CSc2nnc(SCc3ccc(C(=O)OC)o3)s2)o1`, the Potency was “inactive”.
For `Cc1ccc(Oc2ccc(Cl)cc2N)cc1`, the Potency was inconclusive: 3.16 µM [activator, full curve].
For `COc1ccc(-c2nnc3ccc(SCC(=O)Nc4nc5ccccc5s4)nn23)cc1OC`, the Potency was “inactive”.
In the case of `COc1ccc(-n2c(=O)c3c(C)c(C)sc3n(Cc3cccc(F)c3)c2=O)c(OC)c1`, the Potency is reported as inconclusive: 31.6 µM [activator, single point].
In the case of `CN1CCN(CCC(=O)N/N=C/c2cc([N+](=O)[O-])ccc2O)CC1`, the Potency is reported as inconclusive: 35.5 µM [inhibitor, single point].
In the case of `CN(C)c1ccc(-c2noc(C3CCN(S(=O)(=O)c4cccc(Cl)c4)CC3)n2)cc1`, the Potency is reported as “inactive”.
In the case of `CCOC(=O)c1cnn(CCOC(=O)Cc2cccs2)c1NC(=O)Cc1cccs1`, the Potency is reported as inconclusive: 15.8 µM [activator, single point].
With `O=C(COc1ccccc1)Nc1cccc(-c2nc3cc4ccccc4cc3[nH]2)c1` the Potency was active: 1 µM.
With `Cc1ccc(OC(C)C(=O)N=Nc2c(O)[nH]c3ccc([N+](=O)[O-])cc23)cc1` (stereo not drawn) the Potency was inconclusive: 35.5 µM [inhibitor, single point].
In the case of `O=C(Nc1ccc(Br)c(C(F)(F)F)c1)c1ccc(C(F)(F)F)cc1`, the Potency is reported as inconclusive: 25.1 µM [inhibitor, single point].
With `COc1ccc(Cn2nnnc2C(c2cc(OC)ccc2OC)N2CCC(C(N)=O)CC2)cc1` (stereo not drawn) the Potency was inconclusive: 35.5 µM [activator, single point].
`COc1ccc(N(C(C)C(=O)N2CCC(Cc3ccccc3)CC2)S(C)(=O)=O)cc1` (stereo not drawn) was tested, and the Potency was inconclusive: 3.16 µM [inhibitor, single point].
For `O=C(NNC1=NCCCCC1)c1cccc([N+](=O)[O-])c1`, the Potency was “inactive”.
In the case of `NC(=O)c1ccc(-n2nnnc2SCC(=O)Nc2ccccc2-c2ccccc2)cc1`, the Potency is reported as inconclusive: 12.6 µM [activator, partial curve].
With `Cc1cc(C)nc(Nc2n[nH]c(-c3cccc4ccccc34)n2)n1` the Potency was active: 11.2 µM.
With `N/C(CN1CCCC1=O)=N\OC(=O)c1ccccc1Cl` the Potency was inconclusive: 11.2 µM [activator, single point].
With `C=CCn1c(CNC(=O)c2ccco2)nnc1SCC(=O)N1c2ccccc2Sc2ccccc21` the Potency was “inactive”.
`Cc1ccc(N(Cc2cc3ccc(C)cc3[nH]c2=O)C(=O)c2ccco2)c(C)c1` was tested, and the Potency was “inactive”.
For `O=C(O)CSCC(=O)N1CCN(c2ccnc3cc(Cl)ccc23)CC1`, the Potency was “inactive”.
`O=c1c2cc(-c3ccccc3)sc2nc2n1N=C(c1ccccc1)CS2` was tested, and the Potency was “inactive”.
In the case of `O=[N+]([O-])c1ccc(N/N=C\c2cccnc2)nc1`, the Potency is reported as “inactive”.
In the case of `Cc1ccc(-n2c(SCC(=O)Nc3ccc(N4CCOCC4)cc3)nc3ccccc3c2=O)cc1`, the Potency is reported as inconclusive: 10 µM [activator, partial curve, poor fit].
`Cc1cc(C(=O)N/N=C/c2cccc3ccccc23)c(C)o1` was tested, and the Potency was inconclusive: 2.24 µM [inhibitor, full curve].
`CC(C)c1ccccc1NC(=S)NN(Cc1ccccc1)c1ccccc1` was tested, and the Potency was active: 2.24 µM.
`COc1ccc(CC(=O)Nc2ccc(S(=O)(=O)N3CCCCC3)cc2)cc1OC` was tested, and the Potency was inconclusive: 0.447 µM [inhibitor, single point].
`CCCCN(C)C(=O)CCC(=O)NNc1nc2ccccc2c2nc(C)nn12` was tested, and the Potency was “inactive”.
`COc1ccc(NC(=O)n2ncc3c(C)cccc32)cc1OC` was tested, and the Potency was active: 1.12 µM.
For `O=C(Nc1ccc2c(c1)OCO2)NC1(C(F)(F)F)Oc2ccccc2O1`, the Potency was inconclusive: 0.794 µM [inhibitor, single point].
In the case of `COCCn1c(SCc2nc3scc(-c4ccc(Cl)cc4)c3c(=O)[nH]2)nnc1-c1cccc(C)c1`, the Potency is reported as inconclusive: 6.31 µM [activator, full curve].
For `CC(C)C(NS(=O)(=O)c1cccc2nsnc12)C(=O)Nc1nc2ccc(Cl)cc2s1` (stereo not drawn), the Potency was active: 22.4 µM.
In the case of `CCCCCCOC(=O)C(C#N)c1nc2ccccc2nc1N1CCN(CC)CC1` (stereo not drawn), the Potency is reported as active: 10 µM.
With `Cc1cc(=O)[nH]c(N2CCc3ccccc3C2)n1` the Potency was “inactive”.
With `COC(=O)c1ccc(C2N=C(c3cccs3)CC(c3ccccc3O)N2)cc1` (stereo not drawn) the Potency was inconclusive: 35.5 µM [inhibitor, single point].
For `O=S(=O)(Cc1cc(NCc2ccccc2)nc(-c2ccccn2)n1)c1ccccc1`, the Potency was active: 4.47 µM.
`CCONC(=O)Nc1ccccc1[N+](=O)[O-]` was tested, and the Potency was inconclusive: 1.58 µM [inhibitor, partial curve].
In the case of `CC(C)Cc1ccc(S(=O)(=O)N2CCN(C(=O)c3ccco3)CC2)cc1`, the Potency is reported as inconclusive: 11.2 µM [activator, partial curve].

Reference: PubChem BioAssay AID2551 (National Center for Advancing Translational Sciences (NCATS), 2010)
Further: nearly all actives have a fitted effect of over 60% in size.
Potency means the concentration at half of the fitted maximal effect.
